Measured values taken from patent US6660768B2, “Parasiticidal compositions and methods of use” (Schering-Plough Animal Health Corporation, priority 2001, dated 2003).
The source gives many values for each of these; only a part stands here.

Test: Example 3B: solubility of permethrin in PM (propylene glycol monomethyl ether), DM (diethylene glycol monomethyl ether) and PM or DPM (dipropylene glycol monomethyl ether)/d-limonene mixtures at low temperatures, seeded
Details: 10° C.
Experimental: These solutions were poured into 100 mL tubes with screw top caps. These tubes were placed in the cold water bath and allowed to come to equilibrium at the temperature of the bath. […] The seeded preparations were then thoroughly shaken, replaced in the bath and allowed to remain in the bath for a 24 hour period. The preparations were then examined for crystallization, then again thoroughly agitated and replaced in the bath for an additional time period. Samples of the supernatant were removed after additional crystallization had occurred.
The solvent mixtures tested were: dipropylene glycol monomethyl ether/d-limonene and propylene glycol monomethyl ether/d-limonene.
These solvent mixtures were evaluated at ratios of 2:1, 1:1, 1:2, and then at 8:2 and 9:1 (the first number refers to one of the glycol ethers, the second number refers to d-limonene).

**Q.** For `CC1(C)C(C=C(Cl)Cl)C1C(=O)OCc1cccc(Oc2ccccc2)c1` (stereo not drawn) [permethrin], which “% Total Permethrin” value (65% permethrin in DPM/d-limonene, 0% d-limonene of solvent mixture) is on record?
**A.** 62.90%

**Q.** What about the “% Total Permethrin” value (70% permethrin in PM/d-limonene, 67% d-limonene of solvent mixture) of the same compound?
**A.** 69.04%

**Q.** What about the “% Total Permethrin” value (70% permethrin in PM/d-limonene, 100% d-limonene of solvent mixture) of the same compound?
**A.** 69.30%
